From patent US10246489B2, “Peptide inhibitors of calcium oxalate monohydrate crystallization and uses thereof” (UNIVERSITY OF HOUSTON, priority 2013, dated 2019)
Some entries share one result that the patent states for a list of compounds.

Columns and labels:
[1] = Bulk crystallization studies of COM crystal size and habit (optical microscopy, SEM, AFM); conditions: bulk crystallization with Glu-Ala peptides
Method: FIGS. 4A-4B show macroscopic characterization of COM crystals from bulk crystallization in solutions of 0.5 mM CaC2O4 and 20 μg/ml peptide. Optical microscopy was used to measure: Percent distribution of elongated hexagonal platelet (shaded bars) and diamond platelet (pattern bars) crystal morphologies (FIG. 4A); and length of the COM (100) basal surface measured along the direction (i.e. apical tip-to-tip distance) for hexagonal and diamond morphologies (FIG. 4B). Data in (FIG. 4A) and (FIG. 4B) are the average of three separate crystallization experiments performed at 60° C. for 3 days (error bars equal one standard deviation). Data for peptide D4 (diamond habit) was omitted based on too few crystals for statistical analysis;
COM crystals for bulk crystallization studies were synthesized using a reported procedure that produces micron-sized crystals with large basal (100) surfaces. COM crystals prepared with molar composition 0.7 mM CaCl2: 0.7 mM Na2C2O4: 150 mM NaCl are referred to as the control. Growth solutions prepared with peptides used 20 μg/ml of the additive (unless otherwise stated). The crystals were characterized by optical microscopy using a Leica DM2500-M microscope, scanning electron microscope (SEM) using a FEI 235 Dual-Beam Focused Ion-beam instrument, atomic force microscopy (AFM) using an Asylum MFP-3D-SA instrument (Santa Barbara, Calif.), and a calcium ion-selective electrode (ISE, ThermoScientific).
ISE measurements can be used to screen peptide efficacy, but provide little information regarding the specificity of peptide binding to different surfaces of COM crystals. To this end, Applicants used a second analysis step to identify the effect of peptides on COM crystal size and habit. The influence of the peptide library on macroscopic properties of COM crystals was assessed using bulk crystallization studies and optical and scanning electron microscopy to characterize COM crystals grown in the presence of peptides. In vitro, COM crystallization yields elongated hexagonal platelets with {100} basal surfaces bounded by {010} and crystallographically equivalent {121} apical surfaces (FIG. 3A). […] Applicants observed that multiple peptides in the library reduced growth along the directions, which decreased the crystal aspect ratio (length-to-width) and shifted the morphology from hexagonal to diamond platelets. This change in crystal habit can be attributed to the preferential binding of peptides to COM {121} surfaces, which slows growth along the naturally fast growth directions within the (100) plane.
To more systematically assess the surface topography of COM crystals, Applicants used atomic force microscopy (AFM) to probe the effect of peptides on COM (100) surface roughness. Crystals extracted from control and peptide D5 batches were prepared on AFM sample disks and imaged in air. The RMS roughness for (100) surfaces of hexagonal-shaped crystals from the control and test peptide D5 were approximately 1.0 and 4.3 nm, respectively.
Crystal batches prepared in bulk studies were analyzed using optical microscopy to quantify changes in COM crystal size and aspect ratio. […] Although there were clear differences in the percent population of diamond-shaped crystals among peptides tested in this study, Applicants observed that the size of diamond crystals were generally the same, irrespective of peptide sequence (FIG. 4B). […]

[2] = reported by other groups [12]; cited from earlier work

Substance | [001] dimension of COM crystals vs control [1] | reduction of COM growth [2] [%]
A-E-E-A-E-E-A-E-E-A-E-E-A-E-E-A-E-E (AEEAEEAEEAEEAEEAEE; Synthesized Calcium oxalate monohydrate inhibitory polypeptide) [E9] | longer [001] dimensions than control crystals | 
A-E-A-E-A-E-A-E-A-E-A-E-A-E-A-E-A-E (AEAEAEAEAEAEAEAEAE; Synthesized Calcium oxalate monohydrate inhibitory polypeptide) [E10] | longer [001] dimensions than control crystals | 
A-E-A-A-E-A-A-A-E-A-A-E-E-A-A-E-A-A (AEAAEAAAEAAEEAAEAA; Synthesized Calcium oxalate monohydrate inhibitory polypeptide) [E6] | longer [001] dimensions than control crystals | 
A-E-E-A-A-E-A-A-E-A-A-E-E-A-A-E-E-A (AEEAAEAAEAAEEAAEEA; Synthesized Calcium oxalate monohydrate inhibitory polypeptide) [E8] | longer [001] dimensions than control crystals | 
osteopontin [OPN] |  | > 90
A-E-A-A-E-E-A-A-A-A-A-A-E-A-A-E-A-A (AEAAEEAAAAAAEAAEAA; Synthesized Calcium oxalate monohydrate inhibitory polypeptide) [E7] | longer [001] dimensions than control crystals | 
